B1: 93L, 72A (protein, listed as Rattus norvegicus)
chain: AFDGTWKVDRNENYEKFMEKMGINVVKRKLGAHDNLKLTITQEGNKFTVKESSNFRNIDVVFELGVDFAYSAADGTELTGTWTMEGNKLVGKLKRVDNGKELIAVREISGNELIQTYTYEGVEAKRIFKKE
modifications: PEPTIDE (1)...(131) wild-type rat intestinal fatty acid binding protein
B2: 93M, 72A (protein, listed as Rattus norvegicus)
chain: AFDGTWKVDRNENYEKFMEKMGINVVKRKLGAHDNLKLTITQEGNKFTVKESSNFRNIDVVFELGVDFAYSAADGTELTGTWTMEGNKLVGKMKRVDNGKELIAVREISGNELIQTYTYEGVEAKRIFKKE
modifications: PEPTIDE (1)...(131) wild-type rat intestinal fatty acid binding protein
B3: 104R, 72A (protein, listed as Rattus norvegicus)
chain: AFDGTWKVDRNENYEKFMEKMGINVVKRKLGAHDNLKLTITQEGNKFTVKESSNFRNIDVVFELGVDFAYSAADGTELTGTWTMEGNKLVGKFKRVDNGKELIRVREISGNELIQTYTYEGVEAKRIFKKE
modifications: PEPTIDE (1)...(131) wild-type rat intestinal fatty acid binding protein
B4: 104T1, 72A (protein, listed as Rattus norvegicus)
chain: AFDGTWKVDRNENYEKFMEKMGINVVKRKLGAHDNLKLTITQEGNKFTVKESSNFRNIDVVFELGVDFAYSAADGTELTGTWTMEGNKLVGKFKRVDNGKELITVREISGNELIQTYTYEGVEAKRIFKKE
modifications: PEPTIDE (1)...(131) wild-type rat intestinal fatty acid binding protein
B5: 104V1, 72A (protein, listed as Rattus norvegicus)
chain: AFDGTWKVDRNENYEKFMEKMGINVVKRKLGAHDNLKLTITQEGNKFTVKESSNFRNIDVVFELGVDFAYSAADGTELTGTWTMEGNKLVGKFKRVDNGKELIVVREISGNELIQTYTYEGVEAKRIFKKE
modifications: PEPTIDE (1)...(131) wild-type rat intestinal fatty acid binding protein
B6: 106D3, 72A (protein, listed as Rattus norvegicus)
chain: AFDGTWKVDRNENYEKFMEKMGINVVKRKLGAHDNLKLTITQEGNKFTVKESSNFRNIDVVFELGVDFAYSAADGTELTGTWTMEGNKLVGKFKRVDNGKELIAVDEISGNELIQTYTYEGVEAKRIFKKE
modifications: PEPTIDE (1)...(131) wild-type rat intestinal fatty acid binding protein
B7: 104R1, 72A (protein, listed as Rattus norvegicus)
chain: AFDGTWKVDRNENYEKFMEKMGINVVKRKLGAHDNLKLTITQEGNKFTVKESSNFRNIDVVFELGVDFAYSAADGTELTGTWTMEGNKLVGKFKRVDNGKELIRVREISGNELIQTYTYEGVEAKRIFKKE
modifications: PEPTIDE (1)...(131) wild-type rat intestinal fatty acid binding protein
B8: 106H2, 72A (protein, listed as Rattus norvegicus)
chain: AFDGTWKVDRNENYEKFMEKMGINVVKRKLGAHDNLKLTITQEGNKFTVKESSNFRNIDVVFELGVDFAYSAADGTELTGTWTMEGNKLVGKFKRVDNGKELIAVHEISGNELIQTYTYEGVEAKRIFKKE
modifications: PEPTIDE (1)...(131) wild-type rat intestinal fatty acid binding protein
B9: 106F1, 72A (protein, listed as Rattus norvegicus)
chain: AFDGTWKVDRNENYEKFMEKMGINVVKRKLGAHDNLKLTITQEGNKFTVKESSNFRNIDVVFELGVDFAYSAADGTELTGTWTMEGNKLVGKFKRVDNGKELIAVFEISGNELIQTYTYEGVEAKRIFKKE
modifications: PEPTIDE (1)...(131) wild-type rat intestinal fatty acid binding protein
B10: 106C2, 72A (protein, listed as Rattus norvegicus)
chain: AFDGTWKVDRNENYEKFMEKMGINVVKRKLGAHDNLKLTITQEGNKFTVKESSNFRNIDVVFELGVDFAYSAADGTELTGTWTMEGNKLVGKFKRVDNGKELIAVCEISGNELIQTYTYEGVEAKRIFKKE
modifications: PEPTIDE (1)...(131) wild-type rat intestinal fatty acid binding protein
B11: 104Y1, 72A (protein, listed as Rattus norvegicus)
chain: AFDGTWKVDRNENYEKFMEKMGINVVKRKLGAHDNLKLTITQEGNKFTVKESSNFRNIDVVFELGVDFAYSAADGTELTGTWTMEGNKLVGKFKRVDNGKELIYVREISGNELIQTYTYEGVEAKRIFKKE
modifications: PEPTIDE (1)...(131) wild-type rat intestinal fatty acid binding protein
B12: 104N1, 72A (protein, listed as Rattus norvegicus)
chain: AFDGTWKVDRNENYEKFMEKMGINVVKRKLGAHDNLKLTITQEGNKFTVKESSNFRNIDVVFELGVDFAYSAADGTELTGTWTMEGNKLVGKFKRVDNGKELINVREISGNELIQTYTYEGVEAKRIFKKE
modifications: PEPTIDE (1)...(131) wild-type rat intestinal fatty acid binding protein
B13: 104S2, 72A (protein, listed as Rattus norvegicus)
chain: AFDGTWKVDRNENYEKFMEKMGINVVKRKLGAHDNLKLTITQEGNKFTVKESSNFRNIDVVFELGVDFAYSAADGTELTGTWTMEGNKLVGKFKRVDNGKELISVREISGNELIQTYTYEGVEAKRIFKKE
modifications: PEPTIDE (1)...(131) wild-type rat intestinal fatty acid binding protein
B14: 106I3, 72A (protein, listed as Rattus norvegicus)
chain: AFDGTWKVDRNENYEKFMEKMGINVVKRKLGAHDNLKLTITQEGNKFTVKESSNFRNIDVVFELGVDFAYSAADGTELTGTWTMEGNKLVGKFKRVDNGKELIAVIEISGNELIQTYTYEGVEAKRIFKKE
modifications: PEPTIDE (1)...(131) wild-type rat intestinal fatty acid binding protein
B15: 104L1, 72A (protein, listed as Rattus norvegicus)
chain: AFDGTWKVDRNENYEKFMEKMGINVVKRKLGAHDNLKLTITQEGNKFTVKESSNFRNIDVVFELGVDFAYSAADGTELTGTWTMEGNKLVGKFKRVDNGKELILVREISGNELIQTYTYEGVEAKRIFKKE
modifications: PEPTIDE (1)...(131) wild-type rat intestinal fatty acid binding protein
B16: 106A1, 72A (protein, listed as Rattus norvegicus)
chain: AFDGTWKVDRNENYEKFMEKMGINVVKRKLGAHDNLKLTITQEGNKFTVKESSNFRNIDVVFELGVDFAYSAADGTELTGTWTMEGNKLVGKFKRVDNGKELIAVAEISGNELIQTYTYEGVEAKRIFKKE
modifications: PEPTIDE (1)...(131) wild-type rat intestinal fatty acid binding protein

Assay: Baseline fluorescence ratio Ro of probe in absence of analyte
Settings: average baseline fluorescence ratio Ro of the clone probe; substitutions with respect to SEQ ID NO: 2
In the case of B1, the AvgOfRo is reported as 0.41. Work on B2 yielded an AvgOfRo of 0.33.

Same assay, conditions: baseline fluorescence ratio of probe
B3 gave a Ro of 0.436.

Same assay, conditions: baseline fluorescence ratio of probe, no fatty acid
B1 showed a Ro of 0.312. For B4, the AvgOfRo was 0.22. With B5 the AvgOfRo was 0.16. B6 gave an AvgOfRo of 0.30. Work on B7 yielded an AvgOfRo of 0.47. Molecule B8 has an AvgOfRo of 0.31. In the case of B9, the AvgOfRo is reported as 0.31. B10 showed an AvgOfRo of 0.24. B11 showed an AvgOfRo of 0.88. Molecule B12 has an AvgOfRo of 0.40. Molecule B13 has an AvgOfRo of 0.24. With B14 the AvgOfRo was 0.30. Work on B3 yielded an AvgOfRo of 0.40. Work on B15 yielded an AvgOfRo of 0.12. With B16 the AvgOfRo was 0.25.
